# From patent EP2322194A2 (Reprise Biopharmaceutics, LLC, priority 2003, dated 2005)
# Where two headings read alike, the source gives them in different places. The source gives many values for each of these; only a part stands here.
# Test system: over-hydrated, healthy, non-smoking male and female volunteers
# Assay type: in vivo, human
# Conditions: 0.5 ng/kg, individual subjects
# Experimental: Briefly, an open-label, crossover study with 8 healthy, over-hydrated, non-smoking male and female volunteers, age 18-40. The subjects were dosed initially with 0.5 ng/kg dose, then with the 1.0 ng/kg dose and finally the 2.0 ng/kg dose. Pharmacodynamic and pharmacokinetic parameters were evaluated at each dose level. A washout period of two days (48 hours) was observed between dosing. Eight subjects evaluated in this study, 5 males, and 3 females. […] Each subject remained in the clinic from one day prior to first dosing to one day after last dosing for a total of 7 days. […] At this point over-hydration was discontinued. […] Urine-specific gravity was also measured. […] This same procedure was followed for the 1.0 ng/kg and 2.0 ng/kg infusions. […] Criteria for evaluation in the study included urine output over time, urine osmolality over time, urine-specific gravity over time, and […] osmolality and sodium over time. Statistical analysis on the above criteria was performed. The statistical analysis is descriptive and all statistical hypothesis testing was done for exploratory purposes. […] The second and third estimation used 200 mOsm/kg and 400 mOsm/kg as cut off levels for 'onset' and 'end' of action, respectively. […] The overall duration of action was estimated for each dose group using the nonparametric Kaplan-Meier method. […] Furthermore, the duration of action was presented for each treatment group using the mean, SD, median, minimum and maximum values. The dose-response relationship between duration of action and dose was investigated using an appropriate linear or nonlinear model.
substance,measurement,setting,value
1-desamino-8-D-arginine vasopressin [desmopressin],Urine Osmolality,time 20 min,56 mOsm/kg
same,Urine Osmolality,time 40 min,72 mOsm/kg
same,Urine Osmolality,time 60 min,86 mOsm/kg
same,Urine Osmolality,time 80 min,95 mOsm/kg
same,Urine Osmolality,time 100 min,108 mOsm/kg
same,Urine Osmolality,time 120 min,119 mOsm/kg
same,Urine Osmolality,time 140 min,87 mOsm/kg
